These are yes or no findings as the source states them, for the method shown. Binding seen in cells or lysates may run through a third protein. A yes stands for co-enrichment or nearness to the bait. Other partners may have been found. Sequences can lack the tags named with a protein.
Target: T1, Flag-tagged human EFHD2 (EF-hand domain-containing protein D2) (human) (UniProt Q96C19)
T1 sequence: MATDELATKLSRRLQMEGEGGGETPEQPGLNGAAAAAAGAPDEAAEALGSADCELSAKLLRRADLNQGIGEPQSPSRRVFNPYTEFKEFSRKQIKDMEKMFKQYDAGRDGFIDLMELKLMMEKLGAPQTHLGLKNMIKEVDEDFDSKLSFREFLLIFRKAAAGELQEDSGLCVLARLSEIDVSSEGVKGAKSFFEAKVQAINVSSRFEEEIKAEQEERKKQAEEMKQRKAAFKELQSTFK
Test: affinity purification with mass spectrometry; HCT-116 cells transfected with FLAG-EFHD2, treated with 50 ng/ml TNF; proteins immunoprecipitated by FLAG beads, separated, silver stained, LC-MS

With Cofilin (human (endogenous in HCT-116)) the binding was “binds”.
